Assay results taken from patent US20110171225A1, “Novel Plasmodium Falciparum Gene Encoding Signal Peptide Peptidase and Method of Using Inhibitors Thereof for Inhibiting Malarial Infection” (The Board of Trustees of the University of Illinois, priority 2008, published 2011).
Some entries share one result that the patent states for a list of compounds. At least one structure is not confirmed: it was looked up by name or label, or the drawing left a doubt.

System: P. falciparum merozoite invasion of human erythrocytes
Test: RBC invasion by synchronized schizonts with SPP inhibitors, new rings counted
Format: cell-based
Settings: 10 μM, 20 h incubation
Description: To investigate the role of PfSPP in parasite invasion, a chemical approach was adopted by employing three synthetic inhibitors of mammalian membrane aspartyl proteases. The inhibitor (Z-LL)2-ketone (Calbiochem/EMD Biosciences, Gibbstown, N.J.) is specific for mammalian SPP, whereas the L-685,458 and DAPT inhibitors (both were gift of Dr. S. Sisodia of the University of Chicago) are known to be specific for the γ-secretase/Presenilin-1 complex (FIG. 8A). […] Herein, human erythrocytes with highly synchronized P. falciparum schizonts were incubated in the presence of increasing concentrations of (Z-LL)2-ketone, L-685,458, and DAPT. After 20 h of incubation, the rings were counted from the inhibitor and DMSO treated samples.

SMILES: CC(C)C[C@H](NC(=O)OCc1ccccc1)C(=O)N[C@@H](CC(C)C)C(=O)NCC(=O)CNC(=O)[C@H](CC(C)C)NC(=O)[C@H](CC(C)C)NC(=O)OCc1ccccc1 [(Z-LL)2-ketone]
- inhibition of new ring formation: > 95%
